Experimental data reported in patent US4476133A, “Triazolo-4,1-benzoxazepines having CNS activity” (Shionogi & Co., Ltd., priority 1980, dated 1984).

Experiment: acute toxicity
Settings: mouse, in vivo; oral; DS infant male mice, 20 to 23 g; observed 72 hours; Bliss method
Description: Test compounds were orally administered to DS infant male mice with four toxic doses. For each dose 10 mice were used, their body weights ranging from 20 to 23 grams. […] Mortality was calculated by the Bliss method [Bliss: Ann. Appln. Biol., 23, 134-307 (1935); Quant. J. Pharmacol., 11, 192 (1938)].

CN1C(=O)CN=C(c2ccccc2)c2cc(Cl)ccc21 [Diazepam, reference compound]
LD50 at 72 h: > 1000 mg/kg
